Reference: paper PMC6468243, “Mechanistic characterization of the DEAD-box RNA helicase Ded1 from yeast as revealed by a novel technique using single-molecule magnetic tweezers”
For at least one entry, the source does not settle the construct or the ends of the probe. The comparison behind a weaker result is the experiment's own reference, which may not be listed here.

Protein sequences, listed by entry. Tags and fused reporters are not part of them. Lines headed by an entry give the natural chain unless they say otherwise; changes in a name come on top.
UniProt P06634: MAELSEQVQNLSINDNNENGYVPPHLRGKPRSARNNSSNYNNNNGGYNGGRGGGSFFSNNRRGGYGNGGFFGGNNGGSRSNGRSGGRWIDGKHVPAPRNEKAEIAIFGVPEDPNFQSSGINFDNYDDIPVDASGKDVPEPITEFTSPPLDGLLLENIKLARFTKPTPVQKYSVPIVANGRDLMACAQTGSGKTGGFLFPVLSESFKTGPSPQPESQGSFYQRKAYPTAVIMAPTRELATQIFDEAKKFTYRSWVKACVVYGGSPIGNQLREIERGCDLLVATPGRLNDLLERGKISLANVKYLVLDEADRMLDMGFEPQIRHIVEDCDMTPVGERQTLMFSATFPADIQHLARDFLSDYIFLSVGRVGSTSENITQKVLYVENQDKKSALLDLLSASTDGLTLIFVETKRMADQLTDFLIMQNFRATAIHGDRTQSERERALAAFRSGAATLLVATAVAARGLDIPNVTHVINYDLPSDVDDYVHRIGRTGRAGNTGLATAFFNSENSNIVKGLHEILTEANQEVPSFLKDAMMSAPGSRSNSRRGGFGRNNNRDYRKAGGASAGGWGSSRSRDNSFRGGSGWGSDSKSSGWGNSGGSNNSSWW

Target: Ded1-His6 (UniProt P06634)
Experiment: competition (magnetic tweezers displacement assay)
Settings: 1 mM ATP, 10 nM Ded1, against 200 nM 5'ss-11 bp RNA, relatively poor competitor, much higher concentrations needed, Fhold 7 pN, 10 nM Ded1, 1 mM ATP, recombinant protein, protein details: His6 (pET22b)

UCAUACUUUUCUUUUCUUUUCCAUC / GAUGGAAAAGAAAAGAAAAGUAUGA [dsRNA (RNA01/RNA02)]
binding result: binds more weakly
